# PubChem BioAssay AID652272 – Drosophila RNAi Screening Center | 2013
# Screen: 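Genome-wide knock-down search for components of Hedgehog signalling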 (primary screen)
# Cell system: Drosophila clone 8 (Cl8) cells
# Knock-down reagent: long dsRNA against Drosophila genes
# Measured: 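Firefly light from a Hedgehog-responsive ptc promoter reporter and Renilla reference light, both read on a plate reader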
# Scale: firefly Hh reporter signal: higher = more ptc reporter light; Renilla reference signal: higher = more Renilla control light
# Rule for the call: 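Called a hit if the two-replicate mean z-score lies below -2 or above +3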
# Meaning of the calls: active = hit: reporter lowered or raised; inactive = not a hit
# In all, the deposit lists about 21,000 reagents; below is an unselected part of those that have a named target and a result. In the full data, 503 (2.4%) were called active. 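Raw plate light values, not normalised; calls rest on replicate z-scores that were not deposited; hits include reporter decreases as well as increases.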 Reagents against one gene are numbered here. Names joined by + are all predicted targets of the reagent. Not stated in the record: the amount of reagent, the time to read-out.
gene,reagent,"firefly Hh reporter signal, replicate 1","firefly Hh reporter signal, replicate 2","firefly Hh reporter signal, replicate 3","Renilla reference signal, replicate 1","Renilla reference signal, replicate 2",Call
CG34234 + Dh44-R2,1,71472,58192,,3069,2312,inactive
CG6689,1,90097,78379,,3169,2471,inactive
CG13324,1,94587,63777,,2298,4011,inactive
Mlc-c (Myosin light chain cytoplasmic),1,72976,62876,,1885,1866,inactive
CG17959,1,96192,2.65e5,,3852,8944,inactive
lncRNA:CR34024 (long non-coding RNA:CR34024),1,47014,2.04e5,,11780,4332,inactive
Lmpt (Limpet),1,6.85e5,2.55e5,1.15e5,5527,5698,inactive
Lmpt (Limpet),2,1.32e5,,,1920,3905,inactive
Lmpt (Limpet),3,99644,53907,,4214,2307,inactive
Lmpt (Limpet),4,1.64e5,,,2464,4696,inactive
Lmpt (Limpet),5,1.42e5,,,2000,4419,inactive
Prosbeta2R2 (Proteasome beta2 subunit-related 2),1,87688,1.15e5,,3369,3312,inactive
CG15255,1,49969,27860,,1857,3125,active
GatC + PolG2,1,65900,64305,,2810,2834,inactive
CROT (Carnitine O-octanoyltransferase),1,63291,56891,,1482,1572,inactive
CROT (Carnitine O-octanoyltransferase),2,87548,77515,,3268,2987,inactive
Rint1 (RAD50 interactor 1),1,90892,51200,,3744,2215,inactive
ebi,1,64397,1.05e5,,4205,5828,inactive
E(var)3-9 (Enhancer of variegation 3-9),1,1.11e5,1.59e5,,4713,4902,inactive
CG8478,1,92172,1.53e5,,2426,4336,inactive
wrapper,1,84340,69372,,3113,2401,inactive
CG14053,1,97819,1.99e5,,3317,7211,inactive
SecCl (Secretory chloride channel),1,1.21e5,,,4268,3283,inactive
Gr98d (Gustatory receptor 98d),1,94657,1.12e5,,2051,3267,inactive
"foxo (forkhead box, sub-group O)",1,38965,21840,,1349,3735,inactive
"foxo (forkhead box, sub-group O)",2,1.55e5,1.23e5,,5622,4661,inactive
PSMG1 (Proteasome assembly chaperone 1),1,1.06e5,62048,,4277,2817,inactive
gpp (grappa),1,32966,49993,,962,1948,inactive
gpp (grappa),2,49897,71537,,1747,2125,inactive
Taf11 (TBP-associated factor 11),1,87536,57053,,2436,5607,inactive
Eig71Eb (Ecdysone-induced gene 71Eb),1,1.48e5,,,9111,4679,inactive
wda (will decrease acetylation),1,7.90e5,7.88e5,1.81e5,40579,4328,inactive

Continued; the last 3 above are carried over.
gene,reagent,"firefly Hh reporter signal, replicate 1","firefly Hh reporter signal, replicate 2","firefly Hh reporter signal, replicate 3","Renilla reference signal, replicate 1","Renilla reference signal, replicate 2",Call
Taf11 (TBP-associated factor 11),1,87536,57053,,2436,5607,inactive
Eig71Eb (Ecdysone-induced gene 71Eb),1,1.48e5,,,9111,4679,inactive
wda (will decrease acetylation),1,7.90e5,7.88e5,1.81e5,40579,4328,inactive
CG13622,1,4.81e5,88555,,25040,2187,inactive
Grip91 (Gamma-tubulin ring protein 91),1,58619,43985,,1180,832,inactive
CG9641,1,1.19e5,1.13e5,,5040,4905,inactive
Tasp1 (Taspase 1),1,62412,64403,,2544,2386,inactive
Nelf-A (Negative elongation factor A),1,1.23e5,1.17e5,,5561,5108,inactive
CG31278,1,60384,1.14e5,,2167,3025,inactive
Fdx1 (Ferredoxin 1),1,45600,75140,85625,7517,6413,inactive
CG32055,1,87553,78344,,4161,3113,inactive
Tti1 (Telo2 interacting protein 1),1,57171,97370,,1587,2680,inactive
CG34435,1,64882,1.53e5,,2549,6156,inactive
THADA,1,1.38e5,1.59e5,,3440,3641,inactive
Catsup (Catecholamines up),1,64920,60904,,1932,5218,inactive
CG14300,1,7.10e5,1.32e5,,37916,3497,inactive
fd96Cb (forkhead domain 96Cb),1,4.07e5,80531,,21424,2730,inactive
CG5455,1,81296,1.04e5,,1921,2826,inactive
b6,1,74518,1.64e5,,1779,6617,inactive
Leash,1,61138,1.10e5,,1712,2880,inactive
CG1271,1,96416,92256,,3968,3456,inactive
CG12531,1,59101,4.10e5,,1120,14761,inactive
h-cup (heineken-cup),1,93472,60544,,3872,1712,inactive
CG10365,1,4.99e5,1.11e5,,24913,3628,inactive
CG10062,1,1.32e5,1.02e5,,6977,4685,inactive
CG9519,1,1.37e5,95444,,3149,2583,inactive
CG34290,1,54166,2.67e5,,12772,6033,inactive
CG13566,1,64403,40000,,1804,3152,inactive
PICK1 (Protein interacting with C kinase 1),1,6.05e5,2.32e5,,29284,9648,inactive
PICK1 (Protein interacting with C kinase 1),2,1.34e5,77248,,3767,6978,inactive
CG4360,1,4.89e5,96556,,27382,2317,inactive
CG14079,1,64721,1.03e5,,2243,2897,inactive
CG14841,1,1.05e5,97579,,4317,2873,inactive
Polr2J (RNA polymerase II subunit J),1,1.25e5,71241,,2932,5728,inactive
prt (portabella),1,4.31e5,81075,,22939,2775,inactive
CG34273,1,51897,1.00e5,,11884,2739,inactive
CG10747,1,58682,30540,,1640,3760,inactive
CG5439,1,78992,51674,,3213,2499,inactive
CG31178,1,7.66e5,1.97e5,,40662,4210,inactive
CG31949,1,5.16e5,2.60e5,,30065,9969,inactive
CG12164,1,2.10e5,1.13e5,,7360,4616,inactive
CG4942,1,1.00e5,83556,,4301,3553,inactive
CG12061,1,84374,2.19e5,,3126,8538,inactive
Pfdn4 (Prefoldin 4),1,74360,74614,,8380,5301,inactive
